Reference: PubChem BioAssay AID1053208 (Peter MacCallum Cancer Centre, 2014)

Screen: 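Genes whose silencing cuts survival of bone tumour cells only with doxorubicin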 (primary screen)
System: mouse osteosarcoma cells, early-passage culture from an engineered mouse model of fibroblastic bone tumour
Reagent: siRNA pool against mouse genes, 40 nM
Time to read-out: about 120 h (48 h before drug, then 72 h with drug)
Conditions: doxorubicin 100 nM for 72 h, roughly 30-40% inhibitory dose
Measured: 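Luminescent ATP signal taken as viability with or without 100 nM doxorubicin for 72 h; mean of two wells set against non-targeting siRNA and turned into robust z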
Direction: viability z-score with doxorubicin and doxorubicin viability vs non-targeting: higher = more viable cells under doxorubicin; viability z-score without drug: higher = more viable cells with knock-down alone; z-score of drug to no-drug ratio: higher = less drug sensitisation by knock-down
Active means: 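Called active if knock-down leaves viability unchanged without drug (z within -2 to 2) but lowers it with doxorubicin (z at or under -2)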
The whole screen tested about 17,000 reagents; shown is a part drawn at random. 788 of them (4.7%) were called active. 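Calls rest on z-score classes alone; an extra cut-off of viability at most 70% of control was not applied to them.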 The numbers tell different reagents against one gene apart. A reagent listed more than once was tested more than once; the source does not tell the runs apart.

Gene,reagent,combined z-score class,viability z-score with doxorubicin,viability z-score without drug,z-score of drug to no-drug ratio,doxorubicin viability vs non-targeting,Call
Helb,1,no change with or without drug,0.11,1.85,-0.9,0.95,inactive
Or52a5,1,no change with or without drug,-0.79,-1.18,0.11,0.87,inactive
L3hypdh,1,no change with or without drug,-0.45,-1.52,0.79,0.9,inactive
Camk2b,1,no change with or without drug,-0.67,-1.85,0.79,0.88,inactive
Surf2,1,no change with or without drug,0,0.51,-0.22,0.94,inactive
Agps,1,no change with or without drug,-0.45,0,-0.34,0.9,inactive
Tmem266,1,no change with or without drug,0.34,-0.51,0.79,0.97,inactive
Zfp959,1,no change with or without drug,0.56,-0.34,0.9,0.99,inactive
H3f3b,1,no change with or without drug,-0.9,-0.51,-0.56,0.86,inactive
Fgf17,1,no change with or without drug,1.24,0.84,0.79,1.05,inactive
Grk1,1,no change with or without drug,1.57,0,1.8,1.08,inactive
Grk1,1,no change with or without drug,-0.67,-1.52,0.45,0.88,inactive
Pax5,1,no change with or without drug,-0.22,0.34,-0.34,0.92,inactive
Abcd1,1,no change with or without drug,-0.22,-0.17,0,0.92,inactive
Slc22a5,1,no change with or without drug,-0.9,0.17,-0.9,0.86,inactive
Caml,1,no change with or without drug,-0.22,0,-0.11,0.92,inactive
Tbl2,1,high cell count with and without drug,2.02,2.19,0.67,1.12,inactive
Gpatch4,1,no change with or without drug,0.9,0.51,0.67,1.02,inactive
Ednrb,1,no change with or without drug,-1.12,-1.01,-0.45,0.84,inactive
Ppa2,1,no change with or without drug,1.12,-0.17,1.46,1.04,inactive
Gan,1,no change with or without drug,-0.22,0.51,-0.45,0.92,inactive
Miga1,1,no change with or without drug,0.45,-0.17,0.67,0.98,inactive
Il12b,1,no change with or without drug,1.8,1.69,0.79,1.1,inactive
Slamf7,1,no change with or without drug,0.9,0.84,0.45,1.02,inactive
Obox1,1,no change with or without drug,-0.45,0.17,-0.45,0.9,inactive
Dennd10,1,no change with or without drug,-0.34,0.67,-0.67,0.91,inactive
Zfp697,1,no change with or without drug,-0.22,0,-0.11,0.92,inactive
Ly6g6g,1,no change with or without drug,-0.9,-0.51,-0.56,0.86,inactive
Phf5a,1,low cell count with and without drug,-6.74,-3.71,-5.73,0.34,inactive
Hsdl1,1,no change with or without drug,0.79,-0.17,1.01,1.01,inactive
Ezr,1,no change with or without drug,1.35,0,1.57,1.06,inactive
Vmn2r122,1,high cell count without drug only,1.12,2.53,-0.34,1.04,inactive
Vmn2r122,2,high cell count without drug only,1.91,2.36,0.45,1.11,inactive
Mia3,1,no change with or without drug,0,-0.34,0.34,0.94,inactive
Ogfr,1,no change with or without drug,-0.56,0.17,-0.56,0.89,inactive
Tas2r130,1,low cell count with doxorubicin only,-2.02,0.34,-2.25,0.76,active
Fign,1,no change with or without drug,0.45,1.85,-0.67,0.98,inactive
Lpar1,1,no change with or without drug,-0.67,-1.52,0.45,0.88,inactive
Slc44a1,1,no change with or without drug,0.34,1.18,-0.34,0.97,inactive
Alkbh2,1,no change with or without drug,-0.67,0.34,-0.79,0.88,inactive
Limd2,1,no change with or without drug,0.79,-0.17,1.01,1.01,inactive
H2bc4,1,no change with or without drug,0.45,0.51,0.22,0.98,inactive
Rom1,1,no change with or without drug,0.11,0.34,0,0.95,inactive
Nudt15,1,no change with or without drug,0,-1.52,1.24,0.94,inactive
Lilra6,1,high cell count with doxorubicin only,2.14,1.52,1.24,1.13,inactive
Paqr5,1,no change with or without drug,0.45,-0.51,1.01,0.98,inactive
Wdr41,1,no change with or without drug,-0.79,0.51,-1.01,0.87,inactive
Mxi1,1,no change with or without drug,0.34,0.84,-0.11,0.97,inactive
Oplah,1,no change with or without drug,0.34,1.85,-0.67,0.97,inactive
Ktn1,1,no change with or without drug,-0.67,-1.18,0.22,0.88,inactive

Hits, of those listed so far:
Gene,reagent,combined z-score class,viability z-score with doxorubicin,viability z-score without drug,z-score of drug to no-drug ratio,doxorubicin viability vs non-targeting,Call
Tas2r130,1,low cell count with doxorubicin only,-2.02,0.34,-2.25,0.76,active
